# Reference: PubChem BioAssay AID1224828 (NIAID, 2016)
# Screen: 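Knock-downs that increase or decrease LPS-induced p65 nuclear translocation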 (primary screen)
# Cells: mouse RAW264.7 G9 macrophage reporter cells (GFP-p65, Tnf promoter-mCherry)
# Knock-down reagent: siRNA pool against mouse genes, 100 nM
# Timing: 2 days siRNA transfection, then 40 min LPS before fixation
# Challenge: LPS (Salmonella minnesota R595) at 10 ng/ml
# Measurement: 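Microscopy ratio of nuclear to perinuclear-ring GFP-p65 signal, scaled to the plate median; gene score is the average of two replicate robust z-scores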
# Direction: p65 translocation robust z-score: higher = more nuclear NF-kappaB p65 after LPS than the plate median; nuclear/cytoplasmic p65 ratio: higher = more nuclear NF-kappaB p65
# Active means: 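Active if robust z is above 3.3 (negative regulators) or below -1.56, the Tlr4 control median (positive regulators); activity score 50 or more; control wells not called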
# Meaning of the calls: active = hit (p65 shift raised or lowered); inactive = no clear change
# In all, the deposit lists about 17,000 reagents; shown is an unselected part. 762 of all reagents (4.5%) were called active. 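Active calls include both raised and lowered p65 entry, mostly lowered; wells with fewer than 50 cells lack a z-score.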 Raw values vary from plate to plate and are shown uncorrected. Unmarked entries are inactive. Reagents against one gene are numbered here.
Gene,pool no.,p65 translocation robust z-score,"nuclear/cytoplasmic p65 ratio, rep 1","nuclear/cytoplasmic p65 ratio, rep 2",low cell count flag
Slc12a7,1,-1.18,1.24,1.12,enough cells to score
Mcpt8 (mast cell protease 8),1,1.87,2.07,1.77,enough cells to score
Muc4 (mucin 4),1,3.8 (active),2.05,2.46,enough cells to score
Muc4 (mucin 4),2,0.83,1.14,1.4,enough cells to score
"Ear2 (eosinophil-associated, ribonuclease A family, member 2)",1,-2.77 (active),1.06,1.04,enough cells to score
Gbp8 (guanylate-binding protein 8),1,,1.14,1.06,fewer than 50 cells per well; well left out of scoring
"Card14 (caspase recruitment domain family, member 14)",1,-0.9,1.33,1.27,enough cells to score
Krt13 (keratin 13),1,-1.68 (active),1.3,1.12,enough cells to score
Mgst3 (microsomal glutathione S-transferase 3),1,-0.93,1.54,1.44,enough cells to score
Chmp4b (charged multivesicular body protein 4B),1,,2.08,1.09,fewer than 50 cells per well; well left out of scoring
Fzd10 (frizzled class receptor 10),1,1.37,1.7,1.78,enough cells to score
Gdpd4 (glycerophosphodiester phosphodiesterase domain containing 4),1,2.04,1.44,1.49,enough cells to score
Khk (ketohexokinase),1,0.07,1.71,1.37,enough cells to score
"Cyp4f14 (cytochrome P450, family 4, subfamily f, polypeptide 14)",1,-1.07,1.41,1.62,enough cells to score
Selenoi (selenoprotein I),1,-0.79,1.46,1.42,enough cells to score
"Acox2 (acyl-Coenzyme A oxidase 2, branched chain)",1,0.62,1.74,1.68,enough cells to score
Gdap1l1,1,0.68,1.69,1.56,enough cells to score
"Fam107b (family with sequence similarity 107, member B)",1,,1.3,1.38,fewer than 50 cells per well; well left out of scoring
Rnf167 (ring finger protein 167),1,1.2,1.49,1.65,enough cells to score
Sdf4 (stromal cell derived factor 4),1,,1.4,1.09,fewer than 50 cells per well; well left out of scoring
Afmid (arylformamidase),1,,1.42,1.34,fewer than 50 cells per well; well left out of scoring
Gspt1 (G1 to S phase transition 1),1,-0.14,1.45,1.32,enough cells to score
Mturn,1,0.07,1.43,1.45,enough cells to score
C1qtnf9 (C1q and tumor necrosis factor related protein 9),1,-0.62,1.36,1.44,enough cells to score
Iqub (IQ motif and ubiquitin domain containing),1,0.74,1.22,1.39,enough cells to score
Gpr26 (G protein-coupled receptor 26),1,-2.78 (active),1.15,1.14,enough cells to score
Matn3 (matrilin 3),1,-0.04,1.48,1.3,enough cells to score
Pes1 (pescadillo ribosomal biogenesis factor 1),1,-1.27,1.27,1.25,enough cells to score
Rnf141 (ring finger protein 141),1,0.73,1.51,1.31,enough cells to score
Tmem117 (transmembrane protein 117),1,0.42,1.52,2.05,enough cells to score
Jmy (junction-mediating and regulatory protein),1,-0.33,1.46,1.43,enough cells to score
Pip (prolactin induced protein),1,1.33,1.58,1.34,enough cells to score
Ntm (neurotrimin),1,1.23,1.58,1.55,enough cells to score
Hnrnpf (heterogeneous nuclear ribonucleoprotein F),1,0.81,1.61,1.35,enough cells to score
Zfp609 (zinc finger protein 609),1,-0.82,1.26,1.19,enough cells to score
Ifi44l (interferon-induced protein 44 like),1,,1.62,1.32,fewer than 50 cells per well; well left out of scoring
Ehhadh,1,-0.26,1.48,1.29,enough cells to score
Zfp711 (zinc finger protein 711),1,,1.33,1.52,fewer than 50 cells per well; well left out of scoring
Lamb1 (laminin B1),1,0.62,1.46,1.55,enough cells to score
Hoxa9 (homeobox A9),1,0.14,1.39,1.45,enough cells to score
Or4l15 (olfactory receptor family 4 subfamily L member 15),1,,1.8,1.3,fewer than 50 cells per well; well left out of scoring
Rgs6 (regulator of G-protein signaling 6),1,0.55,1.62,1.63,enough cells to score
Fan1 (FANCD2/FANCI-associated nuclease 1),1,-0.87,1.22,1.38,enough cells to score
Arxes1 (adipocyte-related X-chromosome expressed sequence 1),1,0.26,1.42,1.62,enough cells to score
Naxd (NAD(P)HX dehydratase),1,-0.25,1.37,1.54,enough cells to score
Plxnb3 (plexin B3),1,-0.28,1.49,1.34,enough cells to score
Miip (migration and invasion inhibitory protein),1,-0.51,1.51,1.46,enough cells to score
Or10al7 (olfactory receptor family 10 subfamily AL member 7),1,,1.51,1.01,fewer than 50 cells per well; well left out of scoring
Sytl4 (synaptotagmin-like 4),1,-0.39,1.31,1.08,enough cells to score
Acacb (acetyl-Coenzyme A carboxylase beta),1,1.39,1.87,1.77,enough cells to score
C730014E05Rik (RIKEN cDNA C730014E05 gene),1,1.91,1.78,2.2,enough cells to score
Usb1 (U6 snRNA biogenesis 1),1,0.27,1.43,1.55,enough cells to score
Oat (ornithine aminotransferase),1,-1.12,1.37,1.2,enough cells to score
4833420G17Rik (RIKEN cDNA 4833420G17 gene),1,,1.47,1.24,fewer than 50 cells per well; well left out of scoring
Or5b97 (olfactory receptor family 5 subfamily B member 97),1,0.42,1.76,1.4,enough cells to score
"Pcdhga1 (protocadherin gamma subfamily A, 1)",1,-0.11,1.38,1.27,enough cells to score
Trim32 (tripartite motif-containing 32),1,-0.14,1.56,1.42,enough cells to score
Btbd10 (BTB domain containing 10),1,0.99,1.64,1.74,enough cells to score
Art4 (ADP-ribosyltransferase 4),1,0.43,1.65,1.72,enough cells to score

Entries listed so far called active (4):
Gene,pool no.,p65 translocation robust z-score,"nuclear/cytoplasmic p65 ratio, rep 1","nuclear/cytoplasmic p65 ratio, rep 2",low cell count flag
Muc4 (mucin 4),1,3.8 (active),2.05,2.46,enough cells to score
"Ear2 (eosinophil-associated, ribonuclease A family, member 2)",1,-2.77 (active),1.06,1.04,enough cells to score
Krt13 (keratin 13),1,-1.68 (active),1.3,1.12,enough cells to score
Gpr26 (G protein-coupled receptor 26),1,-2.78 (active),1.15,1.14,enough cells to score
